Reference: publication doi:10.1101/791277
Results are given in words; binding and its absence hold for the method and conditions named. In cells and extracts the contact can be indirect. Some entries that bind do so weakly or less than the wild type. Sequences can lack the tags named with a protein.

Chains of the proteins cited; added tags and fusions are not shown. Lines headed by an entry give the natural chain unless they say otherwise; changes in a name come on top.
UniProt O08908, whole entry: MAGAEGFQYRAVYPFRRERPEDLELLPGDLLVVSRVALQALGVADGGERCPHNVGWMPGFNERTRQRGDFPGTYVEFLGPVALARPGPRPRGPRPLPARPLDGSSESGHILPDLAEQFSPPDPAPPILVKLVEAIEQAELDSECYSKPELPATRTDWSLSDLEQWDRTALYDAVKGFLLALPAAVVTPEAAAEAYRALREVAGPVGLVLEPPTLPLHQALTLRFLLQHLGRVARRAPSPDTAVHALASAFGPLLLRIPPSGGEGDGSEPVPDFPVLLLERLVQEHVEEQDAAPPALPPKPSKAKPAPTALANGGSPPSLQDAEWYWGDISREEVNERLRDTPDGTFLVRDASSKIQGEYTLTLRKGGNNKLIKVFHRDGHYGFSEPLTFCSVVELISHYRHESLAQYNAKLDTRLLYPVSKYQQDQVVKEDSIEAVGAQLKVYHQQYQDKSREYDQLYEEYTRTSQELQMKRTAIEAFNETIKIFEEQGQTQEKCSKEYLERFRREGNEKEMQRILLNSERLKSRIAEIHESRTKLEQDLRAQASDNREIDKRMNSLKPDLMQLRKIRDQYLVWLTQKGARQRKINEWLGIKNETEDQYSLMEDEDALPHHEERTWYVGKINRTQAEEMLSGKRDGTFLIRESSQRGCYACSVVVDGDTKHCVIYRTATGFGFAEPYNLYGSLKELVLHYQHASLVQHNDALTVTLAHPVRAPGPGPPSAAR
UniProt P27986, whole entry: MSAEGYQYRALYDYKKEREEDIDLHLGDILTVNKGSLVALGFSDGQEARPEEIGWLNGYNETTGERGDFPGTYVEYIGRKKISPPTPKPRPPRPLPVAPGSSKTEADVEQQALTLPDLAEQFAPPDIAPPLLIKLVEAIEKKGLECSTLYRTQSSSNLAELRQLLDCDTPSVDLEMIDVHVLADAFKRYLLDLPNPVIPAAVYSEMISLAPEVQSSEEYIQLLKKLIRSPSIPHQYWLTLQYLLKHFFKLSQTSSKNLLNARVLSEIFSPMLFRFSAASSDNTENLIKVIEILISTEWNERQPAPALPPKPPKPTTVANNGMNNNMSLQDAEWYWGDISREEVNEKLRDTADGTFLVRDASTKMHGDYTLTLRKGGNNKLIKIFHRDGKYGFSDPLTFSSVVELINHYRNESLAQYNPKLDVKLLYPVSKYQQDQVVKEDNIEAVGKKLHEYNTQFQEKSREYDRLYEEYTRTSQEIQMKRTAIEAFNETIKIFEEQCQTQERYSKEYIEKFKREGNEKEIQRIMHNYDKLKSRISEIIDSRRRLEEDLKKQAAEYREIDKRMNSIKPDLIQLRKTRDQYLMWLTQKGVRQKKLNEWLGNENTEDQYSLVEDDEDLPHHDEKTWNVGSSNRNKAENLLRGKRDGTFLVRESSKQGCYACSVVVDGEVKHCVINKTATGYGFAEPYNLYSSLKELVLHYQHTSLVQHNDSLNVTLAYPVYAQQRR

How the values were obtained:
Test in all cases: co-IP
[1] = biological target: FLAG-p55γ (full-length human PI3-Kinase regulatory subunit p55γ) (human) (UniProt Q92569)
[2] = biological target: FLAG-p85β (full-length mouse PI3-Kinase regulatory subunit p85β) (mouse) (UniProt O08908)
[3] = biological target: FLAG-p85α (full-length human PI3-Kinase regulatory subunit p85α) (human) (UniProt P27986)

binding [1]: binds | binding [2]: binds | binding [3]: binds
B1: HA-dACK (kinase-dead ACK mutant, K158R) (protein, UniProt Q07912 1-1038)
chain: MQPEEGTGWLLELLSEVQLQQYFLRLRDDLNVTRLSHFEYVKNEDLEKIGMGRPGQRRLWEAVKRRKALCKRKSWMSKVFSGKRLEAEFPPHHSQSTFRKTSPAPGGPAGEGPLQSLTCLIGEKDLRLLEKLGDGSFGVVRRGEWDAPSGKTVSVAVRCLKPDVLSQPEAMDDFIREVNAMHSLDHRNLIRLYGVVLTPPMKMVTELAPLGSLLDRLRKHQGHFLLGTLSRYAVQVAEGMGYLESKRFIHRDLAARNLLLATRDLVKIGDFGLMRALPQNDDHYVMQEHRKVPFAWCAPESLKTRTFSHASDTWMFGVTLWEMFTYGQEPWIGLNGSQILHKIDKEGERLPRPEDCPQDIYNVMVQCWAHKPEDRPTFVALRDFLLEAQPTDMRALQDFEEPDKLHIQMNDVITVIEGRAENYWWRGQNTRTLCVGPFPRNVVTSVAGLSAQDISQPLQNSFIHTGHGDSDPRHCWGFPDRIDELYLGNPMDPPDLLSVELSTSRPPQHLGGVKKPTYDPVSEDQDPLSSDFKRLGLRKPGLPRGLWLAKPSARVPGTKASRGSGAEVTLIDFGEEPVVPALRPCAPSLAQLAMDACSLLDETPPQSPTRALPRPLHPTPVVDWDARPLPPPPAYDDVAQDEDDFEICSINSTLVGAGVPAGPSQGQTNYAFVPEQARPPPPLEDNLFLPPQGGGKPPSSAQTAEIFQALQQECMRQLQAPAGSPAPSPSPGGDDKPQVPPRVPIPPRPTRPHVQLSPAPPGEEETSQWPGPASPPRVPPREPLSPQGSRTPSPLVPPGSSPLPPRLSSSPGKTMPTTQSFASDPKYATPQVIQAPGPRAGPCILPIVRDGKKVSSTHYYLLPERPSYLERYQRFLREAQSPEEPTPLPVPLLLPPPSTPAPAAPTATVRPMPQAALDPKANFSTNNSNPGARPPPPRATARLPQRGCPGDGPEAGRPADKIQMAMVHGVTTEECQAALQCHGWSVQRAAQYLKVEQLFGLGLRPRGECHKVLEMFDWNLEQAGCHLLGSWGPAHHKR
